PubChem BioAssay AID504764 – Drosophila RNAi Screening Center | 2011
Aim: 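Genes whose knock-down alters Notch-dependent transcription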 (primary screen). Cell system: Drosophila Kc167 cells. Reagent: long dsRNA against Drosophila genes. Duration: about 5 days (4 days dsRNA, then 24 h after transfection). Challenge: transfection of constitutively active membrane-tethered Notch lacking the extracellular domain, read 24 h later. Measurement: 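Light from a Notch-responsive E(spl)m3 luciferase reporter under active Notch, with control-promoter and no-Notch reporter wells to normalise; raw counts from paired wells a and b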. Reading the numbers: induced reporter light, run 1, well a and induced reporter light, run 1, well b: higher = more light from the Notch target reporter with active Notch; control promoter light, run 1, well a and control promoter light, run 1, well b: higher = more light from the viral control promoter (cell number, transfection, viability); uninduced reporter light, run 1, well a: higher = more light from the Notch target reporter without active Notch. Call rule: 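Hit if the duplicate-averaged log2 ratio of induced to control-promoter light gives a plate-wise z beyond ±2, or induced to uninduced beyond ±1.8; weak-control or discordant-duplicate wells dropped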. Meaning of the calls: active = modifier hit (raised or lowered Notch signal); inactive = not a hit.
In all, the deposit lists about 22,000 reagents; this is an unselected part of those that have a named target and a result. Of all reagents, 403 (1.9%) are marked active. 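Unnormalised raw counts per well; ratio z-scores behind the hit calls and whether each hit raises or lowers signal are not deposited.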 Unmarked entries are inactive. A plus sign joins genes that one reagent is predicted to hit. Reagent sequences are not shown. Not given: the amount of reagent.

target | amplicon | induced reporter light, run 1, well a | induced reporter light, run 1, well b | control promoter light, run 1, well a | control promoter light, run 1, well b | uninduced reporter light, run 1, well a
Fbl6 (GeneID 36201) | DRSC06335 | 1.60e5 | 1.43e5 | 1.62e5 | 1.59e5 | 14010
CG16717 (GeneID 39129) | DRSC10221 | 2.03e5 | 1.71e5 | 2.27e5 | 1.50e5 | 9875
ImpL2 (GeneID 38513) | DRSC08666 | 1.66e5 | 1.47e5 | 1.18e5 | 54440 | 12410
Spn85F (GeneID 41221) | DRSC14545 | 2.16e5 | 1.62e5 | 3.15e5 | 3.33e5 | 13480
beat-VI (GeneID 43377) | DRSC14474 | 1.14e5 | 1.14e5 | 1.91e5 | 1.46e5 | 9592
beat-VI (GeneID 43377) | DRSC14727 | 1.27e5 | 1.39e5 | 2.00e5 | 1.91e5 | 11305
CG13157 (GeneID 36355) | DRSC06282 | 95950 | 1.04e5 | 1.35e5 | 1.42e5 | 9565
Him (GeneID 32801) | DRSC19638 | 80435 | 73720 | 1.16e5 | 76960 | 11645
Sce (GeneID 43327) | DRSC16825 | 1.32e5 | 1.36e5 | 1.98e5 | 1.75e5 | 7880
Rab35 (GeneID 33014) | DRSC20691 | 1.43e5 | 1.42e5 | 1.39e5 | 91885 | 11142
beta4GalNAcTA (GeneID 36585) | DRSC05944 | 1.64e5 | 1.70e5 | 2.34e5 | 2.20e5 | 12342
CG2691 (GeneID 32320) | DRSC19866 | 88105 | 1.03e5 | 1.52e5 | 1.61e5 | 6250
CG14440 (GeneID 31610) | DRSC17933 | 23670 | 19345 | 32215 | 25190 | 5470
Spt-I (GeneID 36448) | DRSC06860 | 86585 | 96120 | 1.07e5 | 1.33e5 | 9970
CG42685 (GeneID 34854) | DRSC01971 | 1.29e5 | 1.66e5 | 1.56e5 | 1.29e5 | 16945
Vps28 (GeneID 47408) | DRSC06168 | 94845 | 1.20e5 | 88555 | 73470 | 7625
Wnt5 (GeneID 32838) | DRSC20300 | 84445 | 88215 | 1.01e5 | 84165 | 10990
Drsl4 (GeneID 317954) | DRSC08034 | 1.73e5 | 1.47e5 | 2.08e5 | 2.01e5 | 14610
CG5555 (GeneID 42302) | DRSC15834 | 2.32e5 | 2.44e5 | 3.03e5 | 3.51e5 | 17595
CG7365 (GeneID 40200) | DRSC10824 | 1.22e5 | 1.08e5 | 70100 | 81815 | 8078
dgt2 (GeneID 34610) | DRSC02548 | 2.08e5 | 2.18e5 | 2.45e5 | 2.81e5 | 18530
mwh (GeneID 38131) | DRSC08382 | 1.88e5 | 1.66e5 | 2.06e5 | 1.95e5 | 9795
CG9626 (GeneID 40979) | DRSC16525 | 99935 | 1.05e5 | 76015 | 67040 | 9020
CG15696 (GeneID 42469) | DRSC15118 | 1.76e5 | 1.74e5 | 1.53e5 | 1.65e5 | 12150
kay (GeneID 3772082) | DRSC13962 | 1.80e5 | 1.73e5 | 1.34e5 | 1.53e5 | 12820
kay (GeneID 3772082) | DRSC15048 | 9020 | 8188 | 14635 | 14605 | 3270
kay (GeneID 3772082) | DRSC16977 | 79785 (active) | 95250 | 64430 | 71235 | 8165
CG2924 (GeneID 31214) | DRSC18525 | 1.67e5 | 2.06e5 | 2.94e5 | 2.87e5 | 14680
Hrs (GeneID 33458) | DRSC00549 | 2.23e5 | 1.99e5 | 2.29e5 | 2.45e5 | 23210
PGRP-SD (GeneID 38858) | DRSC10856 | 2.00e5 | 1.79e5 | 1.99e5 | 1.69e5 | 7675
CG32266 (GeneID 317945) | DRSC08062 | 1.70e5 | 2.13e5 | 2.17e5 | 1.91e5 | 15140
Gat (GeneID 43805) | DRSC17144 | 1.16e5 | 1.23e5 | 2.10e5 | 1.94e5 | 8860
up (GeneID 32314) | DRSC20382 | 1.49e5 | 1.34e5 | 1.87e5 | 1.74e5 | 8665
SerT (GeneID 37895) | DRSC04655 | 1.38e5 | 1.29e5 | 1.23e5 | 1.34e5 | 9170
CG15370 (GeneID 31864) | DRSC18042 | 85285 | 64710 | 1.03e5 | 78140 | 10075
h-cup (GeneID 41879) | DRSC15973 | 1.06e5 | 88025 | 1.11e5 | 99425 | 8065
primo-2 + primo-1 | DRSC16511 | 1.88e5 | 1.85e5 | 1.58e5 | 1.84e5 | 15760

Part of the list above, reformatted.
{"target": "beat-VI (GeneID 43377)", "amplicon": "DRSC14474", "induced reporter light, run 1, well a": 1.14e5, "induced reporter light, run 1, well b": 1.14e5, "control promoter light, run 1, well a": 1.91e5, "control promoter light, run 1, well b": 1.46e5, "uninduced reporter light, run 1, well a": 9592}
{"target": "beat-VI (GeneID 43377)", "amplicon": "DRSC14727", "induced reporter light, run 1, well a": 1.27e5, "induced reporter light, run 1, well b": 1.39e5, "control promoter light, run 1, well a": 2.00e5, "control promoter light, run 1, well b": 1.91e5, "uninduced reporter light, run 1, well a": 11305}
{"target": "CG13157 (GeneID 36355)", "amplicon": "DRSC06282", "induced reporter light, run 1, well a": 95950, "induced reporter light, run 1, well b": 1.04e5, "control promoter light, run 1, well a": 1.35e5, "control promoter light, run 1, well b": 1.42e5, "uninduced reporter light, run 1, well a": 9565}

The listing continues:
target | amplicon | induced reporter light, run 1, well a | induced reporter light, run 1, well b | control promoter light, run 1, well a | control promoter light, run 1, well b | uninduced reporter light, run 1, well a
CG17029 (GeneID 39740) | DRSC10240 | 1.84e5 | 1.64e5 | 1.92e5 | 1.68e5 | 7005
CG9410 + CG15908 | DRSC04976 | 1.25e5 | 1.28e5 | 1.19e5 | 1.26e5 | 8180
CG9410 + CG15908 | DRSC05001 | 2.32e5 | 1.92e5 | 1.96e5 | 1.76e5 | 14345
CG34161 (GeneID 5740441) | DRSC01132 | 1.58e5 | 1.35e5 | 1.84e5 | 1.71e5 | 11420
CG40191 (GeneID 3354930) | DRSC21041 | 1.23e5 | 1.77e5 | 1.34e5 | 1.35e5 | 10265
Syx4 (GeneID 31269) | DRSC18586 | 97105 | 1.01e5 | 1.65e5 | 2.22e5 | 7755
Coq2 (GeneID 40988) | DRSC16516 | 1.10e5 | 99265 | 98150 | 89505 | 7680
CG6163 (GeneID 39274) | DRSC10595 | 1.69e5 | 1.60e5 | 2.00e5 | 1.49e5 | 7410
CG33978 (GeneID 3885646) | DRSC17106 | 49325 | 58655 | 68840 | 73925 | 5140
mRpS33 (GeneID 41991) | DRSC14239 | 2.19e5 | 2.20e5 | 2.34e5 | 2.32e5 | 15865
CG42566 (GeneID 8674120) | DRSC03949 | 68180 | 62870 | 79585 | 75655 | 8070
Ugt37D1 (GeneID 53511) | DRSC02645 | 1.80e5 | 1.85e5 | 1.97e5 | 2.21e5 | 14100
egg (GeneID 37962) | DRSC04119 | 1.46e5 | 1.45e5 | 1.39e5 | 1.52e5 | 11950
cona (GeneID 42213) | DRSC16281 | 2.09e5 | 1.75e5 | 1.95e5 | 1.76e5 | 11575
dlt (GeneID 46719) | DRSC08705 | 1.62e5 | 1.61e5 | 2.84e5 | 2.05e5 | 12170
CG7914 (GeneID 32907) | DRSC20068 | 91325 | 86815 | 95035 | 1.02e5 | 11360
Sr-CI (GeneID 33621) | DRSC00790 | 1.65e5 | 1.90e5 | 3.11e5 | 2.99e5 | 15595
CG15861 (GeneID 37990) | DRSC04274 | 1.37e5 | 1.62e5 | 1.77e5 | 1.33e5 | 11975
CG5618 (GeneID 40241) | DRSC11780 | 1.64e5 | 1.41e5 | 1.28e5 | 1.53e5 | 13480
ps (GeneID 44258) | DRSC15149 | 88520 | 90650 | 89045 | 56915 | 3725
ps (GeneID 44258) | DRSC15151 | 1.42e5 | 1.43e5 | 1.23e5 | 97035 | 8520
ps (GeneID 44258) | DRSC15152 | 67445 | 80255 | 64330 | 47135 | 3560
ps (GeneID 44258) | DRSC16388 | 89855 | 1.29e5 | 1.41e5 | 98735 | 9255
Vha16-2 (GeneID 39282) | DRSC10873 | 1.31e5 | 1.34e5 | 1.84e5 | 1.78e5 | 8265
CG17816 (GeneID 40928) | DRSC15277 | 96820 | 1.21e5 | 1.35e5 | 1.09e5 | 9650
PGRP-LD + Cralbp + Pmi | DRSC09743 | 1.75e5 | 2.21e5 | 1.86e5 | 1.95e5 | 11875
Prm (GeneID 39002) | DRSC08941 | 1.82e5 | 2.33e5 | 1.75e5 | 2.37e5 | 15932
Prm (GeneID 39002) | DRSC08942 | 1.69e5 | 1.57e5 | 1.98e5 | 2.01e5 | 9785
Prm (GeneID 39002) | DRSC11255 | 1.03e5 | 1.10e5 | 70490 | 25650 | 10410
